Common to all, as to conditions: stereoisomer not certain
In one assay the target is T1, OR52N5 (Homo sapiens) (UniProt Q8NH56).
T1 sequence (whole entry): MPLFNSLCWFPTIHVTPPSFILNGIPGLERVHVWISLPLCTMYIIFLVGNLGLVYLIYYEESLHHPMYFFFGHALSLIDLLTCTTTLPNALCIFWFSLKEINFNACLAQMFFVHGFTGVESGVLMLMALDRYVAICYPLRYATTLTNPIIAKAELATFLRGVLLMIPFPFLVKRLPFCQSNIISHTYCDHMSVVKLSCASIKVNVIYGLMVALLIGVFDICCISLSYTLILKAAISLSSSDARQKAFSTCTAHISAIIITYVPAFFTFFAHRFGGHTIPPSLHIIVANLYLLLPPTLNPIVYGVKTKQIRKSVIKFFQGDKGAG
The method in brief:
(§1)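 Values were gathered from published papers (main text and supplementary material), with extra details requested from the original authors when needed, and checked for typos and inconsistencies. Each receptor–molecule pair is called responsive (active) if the original authors judged the measured signal statistically different from baseline, and non-responsive (inactive) otherwise. Assay methods varied by source, often transient mammalian cell-line luciferase assays. Recorded details include cell line, G-protein, co-transfected protein and tags.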

For a further assay, the target named is T2, OR56A1 (Homo sapiens) (UniProt Q8NGH5).
T2 sequence (whole entry): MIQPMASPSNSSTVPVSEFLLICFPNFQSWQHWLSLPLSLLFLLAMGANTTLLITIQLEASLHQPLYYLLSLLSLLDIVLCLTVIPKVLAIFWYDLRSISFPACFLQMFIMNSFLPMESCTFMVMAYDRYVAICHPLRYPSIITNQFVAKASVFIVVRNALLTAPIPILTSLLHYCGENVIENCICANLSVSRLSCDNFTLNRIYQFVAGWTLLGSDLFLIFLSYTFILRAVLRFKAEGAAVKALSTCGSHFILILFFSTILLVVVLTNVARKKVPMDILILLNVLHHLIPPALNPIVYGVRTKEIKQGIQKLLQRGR
The method in brief: as §1

The next assay deals with T3, OR56A4 (Homo sapiens) (UniProt Q8NGH8).
T3 sequence (whole entry): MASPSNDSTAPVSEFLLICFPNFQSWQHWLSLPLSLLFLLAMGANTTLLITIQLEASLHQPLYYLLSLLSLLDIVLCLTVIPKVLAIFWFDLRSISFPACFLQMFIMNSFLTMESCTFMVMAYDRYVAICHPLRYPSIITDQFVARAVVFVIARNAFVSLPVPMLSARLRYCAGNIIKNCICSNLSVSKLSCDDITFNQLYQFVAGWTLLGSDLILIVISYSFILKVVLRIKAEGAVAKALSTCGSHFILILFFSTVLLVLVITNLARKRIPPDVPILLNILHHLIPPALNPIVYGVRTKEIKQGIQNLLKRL
In a few lines: as §1

The target in the next assay is T4, OR56A5 (Homo sapiens) (UniProt P0C7T3).
T4 sequence (whole entry): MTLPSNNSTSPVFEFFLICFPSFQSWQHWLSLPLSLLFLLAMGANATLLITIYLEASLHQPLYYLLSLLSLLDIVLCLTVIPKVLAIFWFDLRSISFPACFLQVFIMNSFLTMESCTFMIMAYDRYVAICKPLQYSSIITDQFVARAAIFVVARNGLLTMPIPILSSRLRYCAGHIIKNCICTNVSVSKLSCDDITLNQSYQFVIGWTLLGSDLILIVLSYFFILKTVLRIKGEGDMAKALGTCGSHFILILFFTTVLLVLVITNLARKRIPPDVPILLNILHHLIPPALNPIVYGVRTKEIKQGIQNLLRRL
In a few lines: as §1

Assay [1] has as its system T5, OR5A1.
T5 sequence (whole entry): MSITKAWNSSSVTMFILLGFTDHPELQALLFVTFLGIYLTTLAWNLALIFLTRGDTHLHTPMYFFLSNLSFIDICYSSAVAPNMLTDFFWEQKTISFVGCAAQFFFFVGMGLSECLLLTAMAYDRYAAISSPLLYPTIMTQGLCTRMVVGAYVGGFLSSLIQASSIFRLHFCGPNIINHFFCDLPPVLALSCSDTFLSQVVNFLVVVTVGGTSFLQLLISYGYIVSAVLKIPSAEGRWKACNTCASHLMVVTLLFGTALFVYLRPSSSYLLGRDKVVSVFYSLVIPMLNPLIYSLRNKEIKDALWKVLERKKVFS
The method in brief: as §1

Assay [2] relates to T6, OR5A1.
T6 sequence (whole entry): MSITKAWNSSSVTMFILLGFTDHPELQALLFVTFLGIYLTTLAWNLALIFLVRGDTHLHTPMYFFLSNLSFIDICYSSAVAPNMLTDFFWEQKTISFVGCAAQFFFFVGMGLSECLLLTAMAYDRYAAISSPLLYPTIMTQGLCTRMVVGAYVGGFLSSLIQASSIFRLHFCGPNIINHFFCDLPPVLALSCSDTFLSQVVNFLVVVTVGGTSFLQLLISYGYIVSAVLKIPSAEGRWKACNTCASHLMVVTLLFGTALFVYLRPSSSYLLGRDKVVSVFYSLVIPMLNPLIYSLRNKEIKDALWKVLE
In a few lines:
as §1
This is another data set of the same source.

Assay [3] has as its system T7, OR5A1.
T7 sequence (whole entry): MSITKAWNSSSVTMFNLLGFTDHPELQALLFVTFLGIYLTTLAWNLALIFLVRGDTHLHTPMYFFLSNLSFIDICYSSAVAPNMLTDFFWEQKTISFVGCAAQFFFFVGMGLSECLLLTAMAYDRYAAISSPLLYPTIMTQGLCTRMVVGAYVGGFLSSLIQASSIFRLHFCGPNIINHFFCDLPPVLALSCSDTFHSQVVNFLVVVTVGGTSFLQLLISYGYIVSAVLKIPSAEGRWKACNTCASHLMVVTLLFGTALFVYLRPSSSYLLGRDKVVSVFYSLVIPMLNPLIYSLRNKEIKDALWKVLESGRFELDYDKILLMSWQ
The method in brief: as §1
This is another data set of the same source.

A further assay deals with T8, OR5A2 (Homo sapiens) (UniProt Q8NGI9).
T8 sequence (whole entry): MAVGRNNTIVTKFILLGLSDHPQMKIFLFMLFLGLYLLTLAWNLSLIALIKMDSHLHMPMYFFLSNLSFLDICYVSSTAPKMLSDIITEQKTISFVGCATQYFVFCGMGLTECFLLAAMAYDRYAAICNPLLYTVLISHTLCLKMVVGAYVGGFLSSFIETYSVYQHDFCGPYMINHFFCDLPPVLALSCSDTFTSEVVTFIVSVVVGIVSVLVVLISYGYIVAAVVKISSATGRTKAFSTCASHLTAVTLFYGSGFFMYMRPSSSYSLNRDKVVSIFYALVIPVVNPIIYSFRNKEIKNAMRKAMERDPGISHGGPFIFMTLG
The method in brief: as §1

The next assay addresses T9, OR5AK2 (Homo sapiens) (UniProt Q8NH90).
T9 sequence (whole entry): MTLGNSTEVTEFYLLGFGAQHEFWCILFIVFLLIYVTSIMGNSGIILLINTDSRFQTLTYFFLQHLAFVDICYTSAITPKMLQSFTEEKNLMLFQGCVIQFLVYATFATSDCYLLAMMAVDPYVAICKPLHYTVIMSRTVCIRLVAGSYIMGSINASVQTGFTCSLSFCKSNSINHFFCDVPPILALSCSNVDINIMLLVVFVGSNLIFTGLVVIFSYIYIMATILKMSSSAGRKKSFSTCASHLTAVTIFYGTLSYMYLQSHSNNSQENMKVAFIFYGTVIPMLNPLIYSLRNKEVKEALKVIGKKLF
The method in brief: as §1

For the next assay, the target named is T10, OR5AC2 (Homo sapiens) (UniProt Q9NZP5).
T10 sequence (whole entry): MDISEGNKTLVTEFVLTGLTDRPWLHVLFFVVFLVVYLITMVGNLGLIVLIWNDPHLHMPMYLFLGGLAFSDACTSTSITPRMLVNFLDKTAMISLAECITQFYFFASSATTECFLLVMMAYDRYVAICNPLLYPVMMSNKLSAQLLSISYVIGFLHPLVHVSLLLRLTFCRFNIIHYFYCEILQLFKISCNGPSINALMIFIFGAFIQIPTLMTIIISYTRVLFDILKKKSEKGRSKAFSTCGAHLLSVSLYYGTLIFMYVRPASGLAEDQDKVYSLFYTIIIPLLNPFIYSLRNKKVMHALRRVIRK
The method in brief: as §1

The list shows a part of the results, in another mix than the full data. The calls were merged from several studies; some rest on single wells. The list shows a part of the results.

From the M2OR odorant receptor database come the findings set out here.

With `c1cnccn1`, the “odorant receptor agonist call” value in the assay with OR52N5 (Homo sapiens), with OR56A1 (Homo sapiens), with OR56A4 (Homo sapiens), in the assay with OR56A5 (Homo sapiens), in the assay with OR5A1 [1] and in the assay with OR5A1 [2] was “inactive” in each case. The “odorant receptor agonist call” value in the assay on OR5A1 [3], with OR5A2 (Homo sapiens) and with OR5AK2 (Homo sapiens) was “inactive” throughout.

On to `CCCCCCCOC(C)=O`, for which the “odorant receptor agonist call” value with OR52N5 (Homo sapiens), in the assay with OR56A1 (Homo sapiens), with OR56A4 (Homo sapiens), in the assay with OR56A5 (Homo sapiens), in the assay on OR5A1 [1] and in the assay on OR5A1 [2] was “inactive” each time. In addition, the “odorant receptor agonist call” value with OR5A1 [3], with OR5A2 (Homo sapiens) and with OR5AK2 (Homo sapiens) was “inactive” each time.

With `CCCCCCCC=O`, the “odorant receptor agonist call” value with OR52N5 (Homo sapiens), with OR56A1 (Homo sapiens), in the assay with OR56A4 (Homo sapiens), in the assay on OR5A1 [1], in the assay with OR5A1 [2] and in the assay on OR5A1 [3] was “inactive” throughout. Moreover, the “odorant receptor agonist call” value with OR5A2 (Homo sapiens) and with OR5AK2 (Homo sapiens) was “inactive” in each case. For the same compound, in the assay with OR56A5 (Homo sapiens), the “odorant receptor agonist call” value was “active”.

With `CCCCCC(C)=O`, the “odorant receptor agonist call” value with OR56A1 (Homo sapiens), with OR5A1 [1], in the assay with OR5A1 [2], with OR5A1 [3], with OR5A2 (Homo sapiens) and in the assay with OR5AC2 (Homo sapiens) was “inactive” throughout. The “odorant receptor agonist call” value with OR5AK2 (Homo sapiens) is “inactive”.

With `CC(C)(O)CCCC1=CCC(C=O)CC1` (stereo unspecified), the “odorant receptor agonist call” value with OR52N5 (Homo sapiens) is “active”. The “odorant receptor agonist call” value with OR56A4 (Homo sapiens) and with OR56A5 (Homo sapiens) was “inactive” in each case.

As for `CCCCO`, the “odorant receptor agonist call” value with OR52N5 (Homo sapiens), in the assay with OR56A1 (Homo sapiens), with OR56A4 (Homo sapiens), with OR56A5 (Homo sapiens), with OR5A1 [1] and in the assay on OR5A1 [2] was “inactive” each time. For the same compound, the “odorant receptor agonist call” value in the assay on OR5A1 [3], in the assay with OR5A2 (Homo sapiens) and in the assay with OR5AK2 (Homo sapiens) was “inactive” each time.

For the compound `CC(=O)OCC=C(C)CCC=C(C)C`, the “odorant receptor agonist call” value with OR52N5 (Homo sapiens) and with OR56A4 (Homo sapiens) was “active” each time. In addition, the “odorant receptor agonist call” value with OR56A1 (Homo sapiens), in the assay with OR56A5 (Homo sapiens), with OR5A1 [1], with OR5A1 [2], in the assay on OR5A1 [3] and with OR5A2 (Homo sapiens) was “inactive” each time. Further, the “odorant receptor agonist call” value with OR5AK2 (Homo sapiens) is “inactive”.

`COC(=O)c1ccccc1`: the “odorant receptor agonist call” value with OR56A1 (Homo sapiens), in the assay with OR5A1 [1], in the assay with OR5A1 [2], in the assay with OR5A1 [3], with OR5A2 (Homo sapiens) and in the assay with OR5AK2 (Homo sapiens) was “inactive” each time.
